From PMC9040568
For at least one entry, the source does not settle the construct or the ends of the probe.

Target: 6xHis-RepB(pAMI4) (UniProt S5YGU8)
Assay: EMSA
Conditions: salmon sperm competitor DNA, 10 mM MgCl2, three complexes, concentration dependent, 40 mM Tris-HCl pH 8.0, 10 mM MgCl2, 1 mM DTT, 100 mM KCl, 10% BSA, room temperature, 1 pmol FAM-DNA, 5% PAGE in 0.5x TBE, recombinant protein, residues 1-307, protein details: N-terminal 6xHis (pET28b(+), NdeI/HindIII), label: FAM (on M13pUCr primer), probe letters rebuilt from the primers and the genome, part of a longer molecule

CTTATGGGATTCATCGCCGCTGTTGACAGCTGTCAACTCGTGTTGAAGCGTCGCTATAAAAAAGATAATTACCACTAATATACTGATATAATCATATTTTATTAAATTTATGTCCACACCCATGAGAACCCAAATGCCGTCACCCTGGCCCCGCATCCATCCCTCGCAATCCAACCAAGGCGAGCGGCTCCCGCATACACCATAGCTCAGCCTGAGATCCAACACGCGACCGCACAATCTGTGACCCAGCCAAAAAACTCTAAAGAACCCATTCGTCGGCGACGAGTTGACAGCTGTCAACGAGGCTGGTGAACGGAATCCGACAACCGCAAATGCGCCTCCCCCTCTCTGCGCAATCTCTCCGCGGCAGCACTCGCAAAACCGCCTCGGCACAAAGCATGAGTTCAACTGTCGAAGGCATCACAACTTGCAAACGAAGGACCCGAAGTTCGGCCAGCCCGACACCGCAAGAGAGCTCGGTTGACAGCTGTCAACTCGGGCTGGCTCGCGACAGATTTG (double strand) [3parS region]
binding result: binds
